Source: the supplement of paper PMC12819154, “High-throughput peptide-centric local stability assay extends protein–ligand identification to membrane proteins, tissues and bacteria” (Nature Structural & Molecular Biology, 2025)
Some of the results follow. Most values lie at the level of the controls, where differences are scatter.

Protein sequences, listed by entry. Tags and fused reporters are not part of them. Lines headed by an entry give the natural chain unless they say otherwise; changes in a name come on top.
UniProt Q9HCS7: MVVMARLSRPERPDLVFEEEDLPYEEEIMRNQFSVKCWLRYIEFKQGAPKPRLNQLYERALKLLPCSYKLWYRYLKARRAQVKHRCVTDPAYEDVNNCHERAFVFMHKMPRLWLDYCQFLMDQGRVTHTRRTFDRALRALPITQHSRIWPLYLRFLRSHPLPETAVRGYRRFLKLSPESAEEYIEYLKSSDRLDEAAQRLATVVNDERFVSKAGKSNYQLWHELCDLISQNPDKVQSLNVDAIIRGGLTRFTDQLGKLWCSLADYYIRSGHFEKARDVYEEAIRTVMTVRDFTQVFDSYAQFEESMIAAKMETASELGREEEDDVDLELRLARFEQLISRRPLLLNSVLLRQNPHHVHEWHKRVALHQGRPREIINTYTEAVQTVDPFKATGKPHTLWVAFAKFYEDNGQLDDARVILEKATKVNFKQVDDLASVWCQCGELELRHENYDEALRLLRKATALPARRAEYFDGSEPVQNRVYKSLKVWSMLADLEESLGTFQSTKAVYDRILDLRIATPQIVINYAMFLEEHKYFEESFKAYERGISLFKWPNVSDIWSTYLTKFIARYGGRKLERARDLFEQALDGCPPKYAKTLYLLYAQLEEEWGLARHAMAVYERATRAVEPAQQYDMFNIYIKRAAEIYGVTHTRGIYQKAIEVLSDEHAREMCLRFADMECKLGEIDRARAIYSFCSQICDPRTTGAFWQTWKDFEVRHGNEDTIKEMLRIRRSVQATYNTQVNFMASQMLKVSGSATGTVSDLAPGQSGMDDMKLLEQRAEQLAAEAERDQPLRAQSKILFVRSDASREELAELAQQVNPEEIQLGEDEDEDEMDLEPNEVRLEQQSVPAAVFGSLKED
UniProt Q9NTW7: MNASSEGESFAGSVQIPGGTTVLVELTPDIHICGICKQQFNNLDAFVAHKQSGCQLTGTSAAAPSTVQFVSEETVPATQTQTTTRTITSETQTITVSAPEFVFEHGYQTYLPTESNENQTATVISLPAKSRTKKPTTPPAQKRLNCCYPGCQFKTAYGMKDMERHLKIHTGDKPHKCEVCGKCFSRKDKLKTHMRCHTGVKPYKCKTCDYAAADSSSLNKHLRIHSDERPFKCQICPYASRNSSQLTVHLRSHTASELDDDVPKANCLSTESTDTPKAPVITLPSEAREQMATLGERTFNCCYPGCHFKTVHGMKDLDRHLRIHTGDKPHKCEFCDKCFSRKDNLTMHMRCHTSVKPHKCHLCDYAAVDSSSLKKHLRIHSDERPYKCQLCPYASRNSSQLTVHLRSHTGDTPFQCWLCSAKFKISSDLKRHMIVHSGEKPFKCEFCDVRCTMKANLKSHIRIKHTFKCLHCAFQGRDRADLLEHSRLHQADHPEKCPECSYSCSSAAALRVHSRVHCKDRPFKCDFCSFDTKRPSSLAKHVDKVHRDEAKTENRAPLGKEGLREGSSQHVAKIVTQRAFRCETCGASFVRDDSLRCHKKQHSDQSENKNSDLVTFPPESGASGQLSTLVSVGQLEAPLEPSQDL
UniProt Q9NW15: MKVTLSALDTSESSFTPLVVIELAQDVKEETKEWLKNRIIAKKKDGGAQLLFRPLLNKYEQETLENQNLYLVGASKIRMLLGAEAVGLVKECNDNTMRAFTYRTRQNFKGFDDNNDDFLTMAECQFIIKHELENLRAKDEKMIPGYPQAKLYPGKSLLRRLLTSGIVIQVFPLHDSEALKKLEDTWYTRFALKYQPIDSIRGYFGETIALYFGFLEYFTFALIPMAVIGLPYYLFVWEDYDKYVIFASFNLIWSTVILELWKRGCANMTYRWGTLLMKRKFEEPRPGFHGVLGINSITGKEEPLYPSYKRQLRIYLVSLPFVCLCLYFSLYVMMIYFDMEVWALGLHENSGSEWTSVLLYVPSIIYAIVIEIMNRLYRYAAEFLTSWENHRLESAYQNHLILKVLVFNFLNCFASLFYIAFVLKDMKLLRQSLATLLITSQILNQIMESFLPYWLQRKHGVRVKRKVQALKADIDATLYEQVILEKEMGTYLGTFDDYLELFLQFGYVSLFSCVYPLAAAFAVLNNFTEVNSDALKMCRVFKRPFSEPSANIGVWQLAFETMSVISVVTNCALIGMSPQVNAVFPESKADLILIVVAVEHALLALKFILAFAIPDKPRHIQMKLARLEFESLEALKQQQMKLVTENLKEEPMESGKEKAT
UniProt Q9NVH2, whole entry: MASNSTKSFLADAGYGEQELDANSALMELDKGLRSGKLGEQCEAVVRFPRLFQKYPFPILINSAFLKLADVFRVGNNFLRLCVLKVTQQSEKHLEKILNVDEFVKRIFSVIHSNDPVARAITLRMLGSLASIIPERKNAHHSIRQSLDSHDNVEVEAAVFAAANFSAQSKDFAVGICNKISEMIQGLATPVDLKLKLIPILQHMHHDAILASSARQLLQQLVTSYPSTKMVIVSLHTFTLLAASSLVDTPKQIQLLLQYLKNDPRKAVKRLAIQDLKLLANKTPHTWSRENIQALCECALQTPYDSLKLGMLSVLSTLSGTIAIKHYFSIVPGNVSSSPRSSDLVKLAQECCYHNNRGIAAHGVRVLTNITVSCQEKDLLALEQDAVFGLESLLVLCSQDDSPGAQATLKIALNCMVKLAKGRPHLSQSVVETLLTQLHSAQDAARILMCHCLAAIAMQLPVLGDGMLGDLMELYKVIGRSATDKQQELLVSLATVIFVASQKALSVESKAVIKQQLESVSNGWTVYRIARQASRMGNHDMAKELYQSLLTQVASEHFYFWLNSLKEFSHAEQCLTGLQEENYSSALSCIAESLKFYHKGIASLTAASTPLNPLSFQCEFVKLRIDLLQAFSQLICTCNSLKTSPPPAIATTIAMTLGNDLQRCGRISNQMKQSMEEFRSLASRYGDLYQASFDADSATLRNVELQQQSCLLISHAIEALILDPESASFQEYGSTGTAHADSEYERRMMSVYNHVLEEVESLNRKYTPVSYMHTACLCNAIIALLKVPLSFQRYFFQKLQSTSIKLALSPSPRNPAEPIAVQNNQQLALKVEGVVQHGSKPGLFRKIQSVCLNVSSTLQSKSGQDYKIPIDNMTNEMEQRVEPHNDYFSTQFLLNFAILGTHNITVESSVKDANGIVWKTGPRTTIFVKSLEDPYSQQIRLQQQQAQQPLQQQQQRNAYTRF
UniProt Q9NW64: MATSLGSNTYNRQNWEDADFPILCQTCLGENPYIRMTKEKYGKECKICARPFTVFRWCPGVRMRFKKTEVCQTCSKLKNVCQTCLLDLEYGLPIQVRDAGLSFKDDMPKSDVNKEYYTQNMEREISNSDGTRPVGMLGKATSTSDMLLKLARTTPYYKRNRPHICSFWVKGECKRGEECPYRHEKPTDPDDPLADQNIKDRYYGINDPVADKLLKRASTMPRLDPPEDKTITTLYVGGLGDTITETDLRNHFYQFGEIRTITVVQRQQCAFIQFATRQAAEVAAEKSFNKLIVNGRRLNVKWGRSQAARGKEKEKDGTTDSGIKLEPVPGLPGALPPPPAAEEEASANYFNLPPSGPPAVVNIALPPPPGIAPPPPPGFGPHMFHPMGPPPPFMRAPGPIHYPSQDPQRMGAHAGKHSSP
UniProt Q9NR45: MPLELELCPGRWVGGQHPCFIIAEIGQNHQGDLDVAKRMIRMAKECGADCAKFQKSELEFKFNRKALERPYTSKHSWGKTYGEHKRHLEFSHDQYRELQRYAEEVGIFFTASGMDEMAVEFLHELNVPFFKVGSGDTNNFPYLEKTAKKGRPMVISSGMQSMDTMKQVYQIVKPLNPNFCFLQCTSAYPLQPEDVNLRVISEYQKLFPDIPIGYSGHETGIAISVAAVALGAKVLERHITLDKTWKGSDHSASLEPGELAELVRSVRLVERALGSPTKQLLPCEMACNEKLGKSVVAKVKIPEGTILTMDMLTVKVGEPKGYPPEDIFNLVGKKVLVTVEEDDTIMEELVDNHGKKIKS
UniProt Q9NPJ6: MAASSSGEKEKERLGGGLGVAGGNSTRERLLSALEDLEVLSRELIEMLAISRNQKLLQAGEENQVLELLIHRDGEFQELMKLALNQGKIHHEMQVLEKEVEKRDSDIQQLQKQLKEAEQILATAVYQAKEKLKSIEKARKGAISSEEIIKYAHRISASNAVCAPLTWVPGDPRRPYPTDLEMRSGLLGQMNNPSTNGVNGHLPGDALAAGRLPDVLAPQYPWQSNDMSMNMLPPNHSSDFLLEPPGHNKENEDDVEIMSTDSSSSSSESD
UniProt Q9NUM4, whole entry: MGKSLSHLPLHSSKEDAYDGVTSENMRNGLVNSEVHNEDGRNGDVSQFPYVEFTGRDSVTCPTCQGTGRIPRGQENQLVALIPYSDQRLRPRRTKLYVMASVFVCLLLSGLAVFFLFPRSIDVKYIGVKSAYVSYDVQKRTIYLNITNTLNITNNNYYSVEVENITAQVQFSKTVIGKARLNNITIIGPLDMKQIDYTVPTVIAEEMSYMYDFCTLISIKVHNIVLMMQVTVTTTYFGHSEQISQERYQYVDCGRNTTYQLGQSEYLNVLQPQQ
UniProt Q9NW68: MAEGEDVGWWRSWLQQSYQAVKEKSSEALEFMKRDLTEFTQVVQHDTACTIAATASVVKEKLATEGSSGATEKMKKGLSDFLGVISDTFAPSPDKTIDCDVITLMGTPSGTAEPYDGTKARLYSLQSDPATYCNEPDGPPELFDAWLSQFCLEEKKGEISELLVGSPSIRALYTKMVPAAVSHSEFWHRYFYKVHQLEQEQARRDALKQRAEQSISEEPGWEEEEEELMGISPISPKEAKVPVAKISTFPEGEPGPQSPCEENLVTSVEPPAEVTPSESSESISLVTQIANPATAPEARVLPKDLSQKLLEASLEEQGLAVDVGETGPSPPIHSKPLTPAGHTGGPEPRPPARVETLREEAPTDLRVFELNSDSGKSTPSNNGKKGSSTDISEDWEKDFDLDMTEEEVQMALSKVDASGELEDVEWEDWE
UniProt Q9NQC8: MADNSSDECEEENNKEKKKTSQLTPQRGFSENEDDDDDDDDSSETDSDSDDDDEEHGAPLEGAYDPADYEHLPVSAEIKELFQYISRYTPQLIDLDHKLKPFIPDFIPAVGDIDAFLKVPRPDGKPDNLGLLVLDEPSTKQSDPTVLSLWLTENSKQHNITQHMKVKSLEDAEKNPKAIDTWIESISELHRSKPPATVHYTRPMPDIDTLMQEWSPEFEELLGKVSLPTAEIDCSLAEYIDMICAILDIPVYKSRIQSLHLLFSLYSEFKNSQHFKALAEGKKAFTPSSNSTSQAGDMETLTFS

What follows are targets tested with Cc1nc(Nc2ncc(C(=O)Nc3c(C)cccc3Cl)s2)cc(N2CCN(CCO)CC2)n1 [dasatinib] (assay: log2 fold change of tryptic peptide abundance, ligand vs vehicle (limited proteolysis) (log2 ratio); higher = more trypsin-susceptible (destabilized)). Details: ligand concentration: 5 uM; sample: K562 cleared lysate.

Target | log2 fold change
XAB2 (peptide sequence: HGNEDTIKEMLR, peptide start residue: 714) (UniProt Q9HCS7) | 0.369
ZFP64 (peptide sequence: DEAKTENR, peptide start residue: 548) (UniProt Q9NTW7) | -0.0602
ANO10 (peptide sequence: LVTENLKEEPMESGKEK, peptide start residue: 642) (UniProt Q9NW15) | 0.162
INTS7 (peptide sequence: LIPILQHMHHDAILASSAR, peptide start residue: 197) (UniProt Q9NVH2) | 0.303
UniProt Q9NW64 (peptide sequence: DRYYGINDPVADK, peptide start residue: 200) | -0.17
NANS (peptide sequence: VGEPKGYPPEDIFNLVGK, peptide start residue: 316) (UniProt Q9NR45) | 0.346
MED4 (peptide sequence: AASSSGEKEK, peptide start residue: 2) (UniProt Q9NPJ6) | 0.31
TMEM106B (peptide sequence: NGLVNSEVHNEDGR, peptide start residue: 28) (UniProt Q9NUM4) | 0.232
BSDC1 (peptide sequence: VETLREEAPTDLR, peptide start residue: 354) (UniProt Q9NW68) | 0.0844
IFT46 (peptide sequence: TSQLTPQR, peptide start residue: 20) (UniProt Q9NQC8) | 0.219
